Source: the supplement of paper PMC10849652
Some of the results follow.

By UniProt entry, the sequences of proteins in these tests, tags left out. Where a name states a change or a piece, a line headed by the entry shows the natural chain unless it says otherwise.
UniProt Q9Y3E7, whole entry, looked up: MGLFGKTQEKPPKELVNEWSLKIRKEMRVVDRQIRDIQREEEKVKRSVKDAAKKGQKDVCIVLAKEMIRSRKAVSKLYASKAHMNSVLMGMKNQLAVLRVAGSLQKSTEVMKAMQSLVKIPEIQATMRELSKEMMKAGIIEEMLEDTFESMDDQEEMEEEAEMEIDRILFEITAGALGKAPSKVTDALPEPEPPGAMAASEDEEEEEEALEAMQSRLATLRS
UniProt Q8WYQ3: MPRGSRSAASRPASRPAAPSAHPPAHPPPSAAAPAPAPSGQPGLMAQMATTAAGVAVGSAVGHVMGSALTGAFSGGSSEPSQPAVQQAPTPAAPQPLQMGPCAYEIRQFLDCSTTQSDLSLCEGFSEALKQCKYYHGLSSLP
UniProt P09496: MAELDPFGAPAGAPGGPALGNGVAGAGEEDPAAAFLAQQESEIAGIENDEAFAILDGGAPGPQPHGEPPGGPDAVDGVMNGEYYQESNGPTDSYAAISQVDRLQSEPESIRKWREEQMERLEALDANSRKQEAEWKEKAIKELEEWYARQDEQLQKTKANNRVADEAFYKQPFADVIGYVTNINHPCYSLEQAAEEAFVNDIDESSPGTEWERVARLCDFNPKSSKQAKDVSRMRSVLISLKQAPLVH
UniProt P54105: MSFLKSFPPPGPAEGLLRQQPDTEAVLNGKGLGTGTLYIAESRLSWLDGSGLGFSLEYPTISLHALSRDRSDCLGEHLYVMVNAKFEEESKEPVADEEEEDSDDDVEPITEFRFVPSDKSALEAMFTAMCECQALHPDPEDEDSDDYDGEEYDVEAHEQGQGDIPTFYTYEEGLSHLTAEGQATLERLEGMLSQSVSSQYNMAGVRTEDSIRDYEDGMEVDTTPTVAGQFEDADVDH
UniProt Q9Y696: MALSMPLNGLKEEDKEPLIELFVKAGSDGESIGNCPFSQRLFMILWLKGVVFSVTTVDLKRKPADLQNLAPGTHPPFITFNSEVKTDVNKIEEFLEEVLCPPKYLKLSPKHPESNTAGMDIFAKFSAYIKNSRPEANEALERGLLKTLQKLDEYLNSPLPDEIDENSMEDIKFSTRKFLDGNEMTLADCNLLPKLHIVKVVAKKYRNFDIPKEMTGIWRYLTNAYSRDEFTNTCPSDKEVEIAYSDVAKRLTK
UniProt Q9BRQ6: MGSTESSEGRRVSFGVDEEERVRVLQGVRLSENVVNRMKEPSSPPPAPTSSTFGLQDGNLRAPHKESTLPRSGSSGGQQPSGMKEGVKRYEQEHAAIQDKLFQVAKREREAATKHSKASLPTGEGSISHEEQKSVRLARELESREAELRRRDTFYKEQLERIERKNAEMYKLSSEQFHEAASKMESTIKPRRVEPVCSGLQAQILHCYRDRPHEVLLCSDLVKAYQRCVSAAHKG
UniProt Q2KHT3: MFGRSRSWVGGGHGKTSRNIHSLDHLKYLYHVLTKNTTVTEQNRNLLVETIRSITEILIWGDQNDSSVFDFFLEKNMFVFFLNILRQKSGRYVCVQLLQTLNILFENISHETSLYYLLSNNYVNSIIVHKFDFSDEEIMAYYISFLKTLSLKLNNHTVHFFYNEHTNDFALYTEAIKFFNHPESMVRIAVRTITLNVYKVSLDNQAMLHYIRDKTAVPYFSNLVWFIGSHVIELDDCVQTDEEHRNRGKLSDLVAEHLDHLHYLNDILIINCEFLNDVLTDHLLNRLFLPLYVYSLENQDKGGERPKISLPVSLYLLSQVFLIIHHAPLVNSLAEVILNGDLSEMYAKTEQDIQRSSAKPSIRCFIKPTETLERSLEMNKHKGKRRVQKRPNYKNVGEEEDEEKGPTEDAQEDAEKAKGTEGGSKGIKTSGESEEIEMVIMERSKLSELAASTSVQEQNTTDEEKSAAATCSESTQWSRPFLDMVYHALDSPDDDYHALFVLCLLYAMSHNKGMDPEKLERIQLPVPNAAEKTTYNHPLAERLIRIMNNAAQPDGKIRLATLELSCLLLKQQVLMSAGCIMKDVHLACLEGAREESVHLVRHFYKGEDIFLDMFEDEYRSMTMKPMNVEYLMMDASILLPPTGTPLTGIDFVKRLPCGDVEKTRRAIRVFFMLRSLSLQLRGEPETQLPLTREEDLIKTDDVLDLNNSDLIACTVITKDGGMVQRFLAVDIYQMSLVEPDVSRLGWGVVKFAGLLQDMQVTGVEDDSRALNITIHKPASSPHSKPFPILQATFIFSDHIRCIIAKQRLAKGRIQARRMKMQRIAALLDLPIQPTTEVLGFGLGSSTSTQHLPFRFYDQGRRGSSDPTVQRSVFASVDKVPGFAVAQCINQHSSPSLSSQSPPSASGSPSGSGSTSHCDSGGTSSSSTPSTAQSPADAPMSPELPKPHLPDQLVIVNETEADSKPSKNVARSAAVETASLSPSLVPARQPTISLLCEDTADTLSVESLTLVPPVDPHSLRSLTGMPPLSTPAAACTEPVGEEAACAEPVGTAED
UniProt P51790: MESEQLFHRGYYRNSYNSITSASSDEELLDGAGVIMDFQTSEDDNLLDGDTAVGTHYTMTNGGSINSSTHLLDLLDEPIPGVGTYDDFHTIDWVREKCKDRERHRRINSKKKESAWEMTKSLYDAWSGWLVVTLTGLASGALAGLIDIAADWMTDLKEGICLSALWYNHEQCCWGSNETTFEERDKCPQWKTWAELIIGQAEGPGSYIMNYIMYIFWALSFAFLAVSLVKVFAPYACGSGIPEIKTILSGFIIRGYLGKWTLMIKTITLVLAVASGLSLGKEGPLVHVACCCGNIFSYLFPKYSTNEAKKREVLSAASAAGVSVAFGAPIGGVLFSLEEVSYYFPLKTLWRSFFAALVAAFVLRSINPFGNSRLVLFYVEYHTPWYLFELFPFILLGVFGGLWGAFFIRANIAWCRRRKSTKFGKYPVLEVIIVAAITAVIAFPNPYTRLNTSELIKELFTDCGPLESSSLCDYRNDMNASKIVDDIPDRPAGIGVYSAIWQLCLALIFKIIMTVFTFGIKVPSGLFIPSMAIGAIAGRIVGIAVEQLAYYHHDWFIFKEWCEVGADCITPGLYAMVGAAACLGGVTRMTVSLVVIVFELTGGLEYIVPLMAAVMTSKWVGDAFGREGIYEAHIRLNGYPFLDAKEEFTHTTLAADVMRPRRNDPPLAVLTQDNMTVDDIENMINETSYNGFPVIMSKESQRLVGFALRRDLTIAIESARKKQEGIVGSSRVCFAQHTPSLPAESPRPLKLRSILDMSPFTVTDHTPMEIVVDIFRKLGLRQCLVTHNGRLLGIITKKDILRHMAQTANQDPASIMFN
UniProt Q9NPF2: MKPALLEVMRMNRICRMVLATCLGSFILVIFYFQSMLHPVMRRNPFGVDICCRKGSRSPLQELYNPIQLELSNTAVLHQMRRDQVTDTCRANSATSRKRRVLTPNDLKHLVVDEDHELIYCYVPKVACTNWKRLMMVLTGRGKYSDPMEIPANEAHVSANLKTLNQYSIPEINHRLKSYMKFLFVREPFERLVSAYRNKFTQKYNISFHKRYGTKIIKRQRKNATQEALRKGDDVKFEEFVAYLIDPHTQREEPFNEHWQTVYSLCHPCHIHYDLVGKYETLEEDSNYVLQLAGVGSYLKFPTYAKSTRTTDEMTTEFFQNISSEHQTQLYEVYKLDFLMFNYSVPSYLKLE
UniProt Q9H078: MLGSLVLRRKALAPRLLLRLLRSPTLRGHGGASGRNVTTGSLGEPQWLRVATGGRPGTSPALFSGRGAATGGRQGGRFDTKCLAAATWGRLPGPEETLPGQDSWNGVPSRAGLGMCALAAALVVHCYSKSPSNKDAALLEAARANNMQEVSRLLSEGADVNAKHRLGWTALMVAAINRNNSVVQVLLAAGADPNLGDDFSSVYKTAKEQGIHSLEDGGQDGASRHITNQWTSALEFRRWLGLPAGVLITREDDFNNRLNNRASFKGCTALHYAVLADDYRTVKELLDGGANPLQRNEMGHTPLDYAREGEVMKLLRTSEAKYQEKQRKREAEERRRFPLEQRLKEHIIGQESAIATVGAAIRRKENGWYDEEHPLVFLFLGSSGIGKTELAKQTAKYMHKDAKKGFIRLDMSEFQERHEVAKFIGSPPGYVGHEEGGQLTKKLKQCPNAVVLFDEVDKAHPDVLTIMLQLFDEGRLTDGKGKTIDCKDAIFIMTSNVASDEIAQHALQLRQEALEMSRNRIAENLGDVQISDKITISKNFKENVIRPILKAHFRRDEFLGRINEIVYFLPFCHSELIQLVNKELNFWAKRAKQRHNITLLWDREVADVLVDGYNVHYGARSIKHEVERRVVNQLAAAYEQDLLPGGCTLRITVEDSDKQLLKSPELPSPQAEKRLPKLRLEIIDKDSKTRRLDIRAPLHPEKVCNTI
UniProt Q7Z460: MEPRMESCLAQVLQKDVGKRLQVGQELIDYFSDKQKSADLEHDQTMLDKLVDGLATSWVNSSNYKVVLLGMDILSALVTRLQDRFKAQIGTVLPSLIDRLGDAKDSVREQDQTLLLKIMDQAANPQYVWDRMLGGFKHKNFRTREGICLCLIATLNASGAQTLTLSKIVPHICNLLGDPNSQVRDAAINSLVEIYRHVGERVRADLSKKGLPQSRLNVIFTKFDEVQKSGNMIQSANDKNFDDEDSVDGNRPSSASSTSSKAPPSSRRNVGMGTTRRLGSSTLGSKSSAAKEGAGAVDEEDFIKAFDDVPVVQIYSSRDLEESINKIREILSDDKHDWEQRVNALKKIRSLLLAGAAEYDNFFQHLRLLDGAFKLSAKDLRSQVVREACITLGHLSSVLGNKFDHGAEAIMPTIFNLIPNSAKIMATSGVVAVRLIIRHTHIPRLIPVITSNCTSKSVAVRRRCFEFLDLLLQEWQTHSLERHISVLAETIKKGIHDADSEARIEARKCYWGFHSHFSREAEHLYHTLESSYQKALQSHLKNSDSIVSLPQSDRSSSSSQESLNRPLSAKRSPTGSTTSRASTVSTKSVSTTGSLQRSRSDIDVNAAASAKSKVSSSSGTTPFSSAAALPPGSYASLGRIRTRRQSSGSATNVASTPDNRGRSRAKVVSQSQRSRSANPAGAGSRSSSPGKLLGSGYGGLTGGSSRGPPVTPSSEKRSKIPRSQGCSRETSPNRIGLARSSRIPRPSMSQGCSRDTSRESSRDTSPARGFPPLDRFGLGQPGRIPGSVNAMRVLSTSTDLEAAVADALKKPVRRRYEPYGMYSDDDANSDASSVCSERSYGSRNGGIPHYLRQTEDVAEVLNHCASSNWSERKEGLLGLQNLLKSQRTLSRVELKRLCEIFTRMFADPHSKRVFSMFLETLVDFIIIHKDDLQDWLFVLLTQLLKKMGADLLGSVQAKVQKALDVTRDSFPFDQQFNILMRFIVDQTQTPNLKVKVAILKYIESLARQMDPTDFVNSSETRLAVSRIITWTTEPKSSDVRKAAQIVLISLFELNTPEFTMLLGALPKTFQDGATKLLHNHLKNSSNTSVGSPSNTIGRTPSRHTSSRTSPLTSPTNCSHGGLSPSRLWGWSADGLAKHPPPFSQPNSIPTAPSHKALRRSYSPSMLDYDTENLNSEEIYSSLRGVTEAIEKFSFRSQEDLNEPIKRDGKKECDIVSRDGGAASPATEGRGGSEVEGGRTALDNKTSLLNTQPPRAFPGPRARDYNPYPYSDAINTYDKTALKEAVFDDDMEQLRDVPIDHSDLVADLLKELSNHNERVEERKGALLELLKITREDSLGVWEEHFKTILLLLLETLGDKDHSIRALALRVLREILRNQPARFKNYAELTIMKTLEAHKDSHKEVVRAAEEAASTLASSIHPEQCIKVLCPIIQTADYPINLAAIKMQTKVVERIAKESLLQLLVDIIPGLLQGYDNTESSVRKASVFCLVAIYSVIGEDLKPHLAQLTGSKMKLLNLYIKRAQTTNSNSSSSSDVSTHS
UniProt Q9Y3Y2: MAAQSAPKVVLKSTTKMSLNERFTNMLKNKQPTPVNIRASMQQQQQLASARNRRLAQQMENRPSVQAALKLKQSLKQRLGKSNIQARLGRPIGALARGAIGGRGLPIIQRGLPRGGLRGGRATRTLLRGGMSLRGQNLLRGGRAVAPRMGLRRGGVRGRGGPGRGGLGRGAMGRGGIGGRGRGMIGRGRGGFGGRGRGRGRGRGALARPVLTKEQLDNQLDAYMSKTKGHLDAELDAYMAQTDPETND
UniProt Q92989: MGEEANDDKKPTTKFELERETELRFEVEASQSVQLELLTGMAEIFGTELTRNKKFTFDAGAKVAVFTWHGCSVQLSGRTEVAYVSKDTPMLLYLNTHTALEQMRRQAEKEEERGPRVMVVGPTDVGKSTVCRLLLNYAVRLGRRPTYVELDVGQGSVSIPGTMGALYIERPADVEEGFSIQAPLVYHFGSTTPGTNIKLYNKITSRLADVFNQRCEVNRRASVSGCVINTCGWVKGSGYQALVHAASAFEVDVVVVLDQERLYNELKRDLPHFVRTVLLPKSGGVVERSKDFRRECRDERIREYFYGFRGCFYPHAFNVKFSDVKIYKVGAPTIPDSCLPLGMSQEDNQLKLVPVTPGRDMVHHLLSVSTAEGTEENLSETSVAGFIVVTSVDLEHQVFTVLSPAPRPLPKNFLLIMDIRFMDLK

Legend:
Test in all cases: log2 fold change, soluble protein after heating vs DMSO (PISA); higher = thermal stabilisation; K562 lysate, 10 uM; active = over 0.2 and 3.5 SD of the protein, either way, in both replicates (recomputed)
erlotinib = compound: C#Cc1cccc(Nc2ncnc3cc(OCCOC)c(OCCOC)cc23)c1 [erlotinib]
How it was run: (§1)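 Quantification was by TMTpro 16plex LC-MS/MS with equalised channel sums, applied to the supernatant after 21,000xg for 90 min. Samples were crude K562 extract at 1 mg/mL protein in PBS pH 7.4 with 1 mM MgCl2, treated with 10 μM compound for 30 min, heated for 3 min across 48°C-58°C, pooled and brought to 0.5% NP-40 at 4°C. Values are log-two fold changes in thermal stability relative to solvent controls, from duplicates.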

[1] = compound: C/C(=N\NC(=O)C1=CC(=CC=C1)S(=O)(=O)N2CCOCC2)/C3=C(C=CC(=C3)Cl)O
How it was run: as §1

[2] = compound: C1=CC(=CC=C1C2=NC3=C(N2)C=C(C=C3)C(=O)N)OC4=CC=C(C=C4)Cl
How it was run: as §1

[3] = compound: C1=CC2=C(C=CC(=C2)/C=C\3/C(=O)NC(=NCC4=CC=CS4)S3)N=C1
How it was run: as §1

[4] = compound: C1=CC2=NC=CN=C2C=C1/C=C/3\C(=O)NC(=O)S3
How it was run: as §1

[5] = compound: C1=CC=C(C=C1)C2=NC(=C(N2)C3=CC=NC=C3)C4=CC(=C(C=C4)Cl)O
How it was run: as §1

[6] = compound: C1=CC=C2C(=C1)C3=NNC4=CC=CC(=C43)C2=O
How it was run: as §1

[7] = compound: C1CCN(C1)C(=O)NC2=CC=CC(=C2)NC3=NC=C(C(=N3)NCCC4=CN=CN4)Br
How it was run: as §1

[8] = compound: C1CN(CCC1(CC2=CC=C(C=C2)Cl)N)C3=NC=NC4=C3C=CN4
How it was run: as §1

IRAK-1-4 Inhibitor I = compound: C1COCCN1CCN2C3=CC=CC=C3N=C2NC(=O)C4=CC(=CC=C4)[N+](=O)[O-] [IRAK-1-4 Inhibitor I]
How it was run: as §1

ibrutinib = compound: C=CC(=O)N1CCC[C@@H](n2nc(-c3ccc(Oc4ccccc4)cc3)c3c(N)ncnc32)C1 [ibrutinib]
How it was run: as §1

[9] = compound: CC(=O)c1cnc2ccc(-c3cc(Cl)c(O)c(Cl)c3)nc2c1N[C@H]1CC[C@H](CN(C)C)CC1
How it was run: as §1

ralimetinib = compound: CC(C)(C)Cn1c(N)nc2ccc(-c3[nH]c(C(C)(C)C)nc3-c3ccc(F)cc3)nc21 [ralimetinib]
How it was run: as §1

[10] = compound: CC(C)(O)CC(=O)NCCn1ccc2ncnc(Nc3ccc(Oc4cccc(C(F)(F)F)c4)c(Cl)c3)c21
How it was run: as §1

[11] = compound: CC(C)C1=C2N=C(C=C(N2N=C1)NCC3=CC=CC=C3)NCCCCCCN
How it was run: as §1

[12] = compound: CC1=C(C(CC(=O)N1)C2=CC=C(C=C2)C(F)(F)F)C(=O)NC3=C(C=C4C(=C3)C=NN4)F
How it was run: as §1

[13] = compound: CC1=C(C2=C(C=C1)C(=O)C3=CC=CC=C3N2CCCN)C
How it was run: as §1

[14] = compound: CC1=C(C=C(C=C1)NC(=O)C2=CC(=CC=C2)C(C)(C)C#N)NC3=CC4=C(C=C3)N=CN(C4=O)C
How it was run: as §1

[15] = compound: CC1=C(C=C(C=C1)NC(=O)C2=CC(=CC=C2)N(C)C)NC(=O)C3=CC=C(C=C3)O
How it was run: as §1

[16] = compound: CC1=CC=C(C=C1)SC2=C3C=C(SC3=CN=C2)C(=O)N
How it was run: as §1

Measured: log2 fold change

CHMP3 (UniProt Q9Y3E7)
inactive: erlotinib 0.004 | [1] 0.02 | [2] -0.006 | [3] -0.008 | [4] 0.002 | [5] 0.009 | [6] 0.041 | [7] 0.017 | [8] 0.004 | IRAK-1-4 Inhibitor I 0.042 | ibrutinib 0.006 | [9] 0.005 | ralimetinib -0.002 | [10] -0.075 | [11] 0.002 | [12] -0.066 | [13] -0.015 | [14] 0.064 | [15] -0.012 | [16] -0.002

CLCN7 (UniProt P51798)
inactive: erlotinib -0.033 | [1] -0.037 | [2] 0.038 | [3] 0.069 | [4] -0.005 | [5] 0.017 | [6] -0.013 | [7] -0.063 | [8] -0.002 | IRAK-1-4 Inhibitor I -0.014 | [9] -0.035 | ralimetinib 0.017 | [10] -0.069 | [11] -0.029 | [12] -0.001 | [13] -0.023 | [14] 0.025 | [15] 0.019 | [16] -0.003

CHCHD10 (UniProt Q8WYQ3)
inactive: erlotinib -0.022 | [1] -0.043 | [2] -0.002 | [3] 0.053 | [4] -0.048 | [5] 0.035 | [6] 0.061 | [7] 0.045 | [8] -0.037 | IRAK-1-4 Inhibitor I 0.018 | ibrutinib -0.054 | [9] -0.005 | ralimetinib 0.103 | [10] -0.066 | [11] -0.014 | [12] 0.023 | [13] 0.015 | [15] 0.043 | [16] -0.017

CLTA isoform 2 (UniProt P09496)
inactive: erlotinib -0.133 | [1] -0.036 | [2] -0.005 | [3] -0.06 | [4] -0.071 | [5] 0.017 | [6] 0.01 | [7] -0.083 | [8] -0.001 | IRAK-1-4 Inhibitor I -0.032 | [9] -0.007 | ralimetinib 0.066 | [10] 0.016 | [11] -0.006 | [12] -0.024 | [13] -0.015 | [14] 0.032 | [15] 0.013 | [16] -0.031

CLNS1A (UniProt P54105)
inactive: erlotinib 0.008 | [1] 0.007 | [2] 0.049 | [3] -0.004 | [4] -0.014 | [5] 0.004 | [6] 0.001 | [7] 0.018 | [8] 0.014 | IRAK-1-4 Inhibitor I 0.036 | [9] 0.016 | ralimetinib -0.008 | [10] -0.047 | [11] -0.019 | [12] 0.014 | [13] -0.011 | [14] -0.001 | [15] 0.017 | [16] -0.028

CLIC4 (UniProt Q9Y696)
inactive: erlotinib -0.001 | [1] -0.04 | [2] 0.005 | [3] -0.011 | [4] -0.014 | [5] -0.014 | [6] 0.022 | [7] 0.008 | [8] -0.005 | IRAK-1-4 Inhibitor I 0.015 | [9] -0.005 | ralimetinib 0.012 | [10] -0.006 | [11] 0.011 | [12] -0.007 | [13] 0.011 | [14] 0.036 | [15] -0.037 | [16] 0.001

CHCHD6 (UniProt Q9BRQ6)
inactive: erlotinib -0.092 | [1] -0.156 | [2] -0.215 | [3] 0.094 | [4] -0.026 | [5] 0.04 | [6] -0.026 | [7] 0.075 | [8] 0.042 | IRAK-1-4 Inhibitor I -0.03 | ibrutinib 0.036 | [9] -0.05 | ralimetinib -0.068 | [10] -0.291 | [11] -0.049 | [13] -0.005 | [14] -0.001 | [15] 0.092 | [16] 0.194

CLASRP (UniProt Q8N2M8)
inactive: erlotinib 0.004 | [1] -0.131 | [2] 0.021 | [3] 0.026 | [4] -0.069 | [5] -0.001 | [6] -0.008 | [7] 0.006 | [8] 0.04 | IRAK-1-4 Inhibitor I -0.05 | [9] 0.002 | ralimetinib 0 | [10] -0.096 | [11] -0.015 | [12] 0.031 | [13] -0.008 | [14] -0.036 | [15] 0.012 | [16] 0.01

CLEC16A (UniProt Q2KHT3)
inactive: erlotinib -0.001 | [1] 0.008 | [2] 0.017 | [3] -0.017 | [4] 0.036 | [5] 0.03 | [6] 0.01 | [7] -0.024 | [8] 0.02 | IRAK-1-4 Inhibitor I -0.017 | [9] -0.026 | ralimetinib 0.015 | [10] -0.009 | [11] -0.018 | [12] -0.022 | [13] -0.023 | [14] 0.025 | [15] -0.018 | [16] -0.012

CLCN3 isoform 2 (UniProt P51790)
inactive: erlotinib 0.003 | [1] 0.083 | [2] -0.061 | [3] -0.005 | [4] -0.004 | [5] -0.042 | [6] 0.013 | [7] -0.032 | [8] 0.029 | IRAK-1-4 Inhibitor I 0.068 | [9] 0.029 | ralimetinib 0.02 | [10] -0.032 | [11] -0.035 | [12] -0.017 | [13] -0.066 | [14] 0.029 | [15] 0.048 | [16] -0.013

CLPX (UniProt O76031)
inactive: erlotinib -0.002 | [1] -0.033 | [2] 0.011 | [3] 0.044 | [4] 0.043 | [5] 0.012 | [6] 0.009 | [7] 0.013 | [8] -0.003 | IRAK-1-4 Inhibitor I 0.02 | [9] -0.001 | ralimetinib -0.01 | [10] 0 | [11] 0.016 | [12] 0 | [13] -0.05 | [14] -0.008 | [15] 0.019 | [16] -0.01

CHST11 (UniProt Q9NPF2)
inactive: erlotinib 0.033 | [1] 0.007 | [2] -0.029 | [3] -0.156 | [4] 0.057 | [5] -0.057 | [6] 0.006 | [7] -0.096 | [8] 0.083 | IRAK-1-4 Inhibitor I 0.002 | ibrutinib 0.125 | ralimetinib -0.02 | [10] 0.008 | [11] -0.012 | [12] -0.061 | [13] 0 | [14] 0.056 | [15] -0.059

CLPB isoform 2 (UniProt Q9H078)
inactive: erlotinib 0.023 | [1] -0.029 | [2] -0.028 | [3] 0.02 | [4] -0.047 | [5] -0.018 | [6] 0.006 | [7] 0.022 | [8] 0.055 | IRAK-1-4 Inhibitor I -0.002 | [9] -0.016 | ralimetinib 0.002 | [10] -0.024 | [11] -0.006 | [12] 0.002 | [13] -0.054 | [14] -0.011 | [15] 0.025 | [16] 0.012

CHIC2 (UniProt Q9UKJ5)
inactive: erlotinib -0.098 | [1] 0.097 | [2] 0.065 | [3] -0.039 | [4] 0.039 | [5] 0.021 | [6] -0.009 | [7] 0.056 | [8] -0.035 | IRAK-1-4 Inhibitor I 0.067 | ibrutinib 0.001 | [9] -0.114 | ralimetinib -0.154 | [10] 0.183 | [11] -0.064 | [12] 0.157 | [13] 0.026 | [15] -0.066 | [16] 0.221

2 entries picked at random from those above, as already listed:
CLIC4 (UniProt Q9Y696)
inactive: erlotinib -0.001 | [1] -0.04 | [2] 0.005 | [3] -0.011 | [4] -0.014 | [5] -0.014 | [6] 0.022 | [7] 0.008 | [8] -0.005 | IRAK-1-4 Inhibitor I 0.015 | [9] -0.005 | ralimetinib 0.012 | [10] -0.006 | [11] 0.011 | [12] -0.007 | [13] 0.011 | [14] 0.036 | [15] -0.037 | [16] 0.001

CLCN3 isoform 2 (UniProt P51790)
inactive: erlotinib 0.003 | [1] 0.083 | [2] -0.061 | [3] -0.005 | [4] -0.004 | [5] -0.042 | [6] 0.013 | [7] -0.032 | [8] 0.029 | IRAK-1-4 Inhibitor I 0.068 | [9] 0.029 | ralimetinib 0.02 | [10] -0.032 | [11] -0.035 | [12] -0.017 | [13] -0.066 | [14] 0.029 | [15] 0.048 | [16] -0.013

Continuation:

CLASP1 (UniProt Q7Z460)
inactive: erlotinib 0.042 | [1] 0.082 | [2] -0.029 | [3] -0.022 | [4] 0.01 | [5] 0.026 | [6] -0.041 | [7] -0.035 | [8] 0.02 | IRAK-1-4 Inhibitor I 0.029 | [9] 0.013 | ralimetinib 0.02 | [10] 0.024 | [11] 0.01 | [12] 0.018 | [13] 0.004 | [14] 0.02 | [15] 0.036 | [16] 0.001

CHTOP isoform 3 (UniProt Q9Y3Y2)
inactive: erlotinib 0.051 | [1] -0.337 | [2] 0.036 | [3] 0.016 | [4] -0.04 | [5] -0.005 | [6] -0.001 | [7] 0.117 | [8] -0.007 | IRAK-1-4 Inhibitor I -0.059 | ibrutinib 0.075 | [9] -0.099 | ralimetinib 0.016 | [10] -0.075 | [11] 0.157 | [13] 0.03 | [14] 0.015 | [15] 0.099 | [16] -0.028

CLCN3 (UniProt P51790)
inactive: erlotinib -0.047 | [1] 0.043 | [2] -0.067 | [3] 0.06 | [4] 0.016 | [5] -0.02 | [6] 0.084 | [7] -0.043 | [8] -0.117 | IRAK-1-4 Inhibitor I 0.083 | [9] 0.038 | ralimetinib 0.038 | [10] 0.05 | [11] -0.089 | [12] -0.03 | [13] 0.024 | [14] -0.155 | [15] -0.017 | [16] 0.079

CLP1 (UniProt Q92989)
inactive: erlotinib 0.024 | [1] 0.027 | [2] -0.011 | [3] -0.001 | [4] -0.045 | [5] -0.014 | [6] 0.034 | [7] -0.024 | [8] -0.033 | IRAK-1-4 Inhibitor I -0.045 | [9] 0.062 | ralimetinib 0.006 | [10] 0.003 | [11] 0.012 | [12] 0.023 | [13] 0.001 | [14] -0.02 | [15] -0.037 | [16] 0.01
